Test results: patent US20210107871A1 (priority 2017, published 2021)
Values joined by “and” are separate entries in the source; they are usually repeats but may differ in a detail not shown here. Identical values can stand only once. Like-named read-outs stand apart in the source and are kept apart here. At least one read-out could not be matched to a standard name with certainty.

Test system: pseudotype VSV (expressing GFP) having the surface glycoprotein of Ebola virus (zaire sp.)
Assay type: cell-based

| Compound | Viral Infection rate (%) (Compound Conc. 0.312 μM) | Viral Infection rate (%) (Compound Conc. 0.625 μM) | Viral Infection rate (%) (Compound Conc. 2.5 μM) | Viral Infection rate (%) (Compound Conc. 5 μM) | Viral Infection rate (%) (Compound Conc. 0.020 μM) | Viral Infection rate (%) (Compound Conc. 0.078 μM) |
| --- | --- | --- | --- | --- | --- | --- |
| CCN(CC)CCCN(c1ccc(OC)cc1[N+](=O)[O-])S(=O)(=O)c1ccc(OC)cc1 [4-11, 4-methoxy-N-[3-(diethylamino)propyl]-N-(4-methoxy-2-nitro-phenyl)benzensulfonamide] | 84.57% | 42.65% and 67.43% | 3.34% and 12.35% |  |  |  |
| CCN(CC)CCN(c1ccc(OC)cc1-c1ccccc1)S(=O)(=O)c1ccccc1 [4-28, N-[3-(diethylamino)ethyl]-N-(4-methoxy-2-phenyl-phenyl)benzensulfonamide] | 78.03% and 98.83% | 52.49% and 102.84% |  | 0.09% |  |  |
| CNCCCN(c1ccc(OC)cc1-c1ccccc1)S(=O)(=O)c1ccccc1 [4-30, N-(4-methoxy-2-phenyl-phenyl)-N-[3-(methylamino)propyl]-benzensulfonamide] |  |  |  | 0.00% and 0.12% |  |  |
| COc1ccc(N(CCN2CCCCC2)S(=O)(=O)c2ccccc2)c(-c2ccccc2)c1 [4-35, N-(4-methoxy-2-phenyl-phenyl)-N-[2-(1-piperidyl)ethyl]benzensulfonamide] | 83.95% | 78.88% | 30.42% | 8.43% and 0.98% |  |  |
| COc1ccc(N(CC2CCCN(C)C2)S(=O)(=O)c2ccccc2)c(-c2ccccc2)c1 (stereo not shown) [4-42] |  |  |  |  | 103.88 | 102.88 |
